# Measurements: PubChem BioAssay AID651820 (National Center for Advancing Translational Sciences (NCATS), 2012)
# Out of some 340,000 compounds screened, about 12,000 (3.5%) were called active. The source calls these results inconclusive, neither active nor inactive. Calls follow the shape of the dose curve; as a rule, active = well fitted inhibition curve with a large enough effect; inconclusive = small, poorly fitted or top-dose-only effect, or another doubt; inactive = no such curve, though single readings can be large or run the other way. Some tests of the compounds listed are not included; inactive here does not mean inactive elsewhere.
# Test: qHTS Assay for Inhibitors of Hepatitis C Virus (HCV)
# Settings: Huh7.5.1 HCVcc-Cre (HCVcc is cell-culture hepatitis C virus) infection, luciferase reporter, 44 h
# Excerpt: Hepatitis C virus (HCV) infects about 200 million people in the world. Many infected people progress to chronic liver disease including cirrhosis with a risk of developing liver cancer. To date, there is no effective vaccine for hepatitis C. Current therapy based on interferon is only effective in about half of the patients and is associated with significant adverse effects. The fraction of people with HCV who can complete a successful treatment is estimated to be no more than 10 percent. Recent development of direct-acting antivirals against HCV, such as protease and polymerase inhibitors, is promising but still requires combination with peginterferon and ribavirin for maximal efficacy. In addition, these agents are associated with high rate of resistance and many have significant side effects. Due to the lack of a culture system for infectious HCV, the search for new HCV drugs has been greatly hampered. […]
# The assay will start with plating 1,000 cells/well in 3 µL volume and culture for 4 h. […] A volume of 4.5 µL luciferase substrates will be added to each well and the plates will be incubated at room temperature for 15 min. and then read for 15 sec. for the luciferase activity
row,Compound,Potency
1,CCCCC(CC)C(=O)N1CCN(C/C=C/c2ccccc2)CC1 (configuration not stated),inconclusive: 10 µM
2,O=C(NCC1(N2CCCCC2)CCCCC1)c1cccc(Cl)c1,inconclusive: 12.6 µM
